# Primary screen of a compound library

Mtb growth Cornell: 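Whole-cell assay for inhibitors of Mycobacterium tuberculosis growth, labelled Cornell in the record; the read-out is not stated. The concentration is filed as 10 mM, unlikely as a test dose, so the dose is not known. Higher means stronger inhibition (inferred from two other growth screens of the library). Size under these conditions: about 53,000 compounds, about 900 of them at 50% or above in at least one test.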
Mtb heat-shock: 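Assay on Mycobacterium tuberculosis, filed only as a heat shock assay from Cornell; the read-out is not stated. The concentration is filed as 10 mM, unlikely as a test dose, so the dose is not known. Higher reads as stronger inhibition (inferred: compounds with an IC50 in retests scored well above the rest). Of about 69,000 compounds tested this way, about 930 (1.4%) reached 50% or more in at least one test.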

Results are given as percent effect. How 0% and 100% were set is not recorded. Most values in the screen are low, and negative values occur. The compounds are a random part of those screened. A dash means the value is not listed here; it may have been measured.

{"structure": "Cc1cccc(NS(=O)(=O)c2cc(C(=O)O)oc2C)c1", "Mtb heat-shock": -21.79}
{"structure": "CNC(=O)CS(=O)(=O)C1CCN(S(=O)(=O)c2cccc(C(C)=O)c2)CC1", "Mtb growth Cornell": -4.723, "Mtb heat-shock": -1.579}
{"structure": "Cc1n[nH]c2c1C(c1ccc3c(c1)OCCO3)SCC(=O)N2", "stereo": "stereo not shown", "Mtb growth Cornell": 11.9, "Mtb heat-shock": 23.45}
{"structure": "Cc1ccc(C2CCCCCN2CCNS(C)(=O)=O)o1", "stereo": "stereo not shown", "Mtb growth Cornell": 9.087, "Mtb heat-shock": -18.54}
{"structure": "COC(=O)c1cccn1C1CCN(C(=O)c2cc(C)ccc2O)CC1", "Mtb growth Cornell": 13.05, "Mtb heat-shock": 13.32}
{"structure": "Cc1nc(NC(=O)CCOCC(F)(F)F)ccc1Br", "Mtb heat-shock": -3.676}
{"structure": "O=C(O)C(F)(F)F.[H][C@]12CCN(C(=O)c3ccc(C)o3)C[C@@]1([H])OCCN(C1CCOCC1)C2", "Mtb growth Cornell": 4.22, "Mtb heat-shock": 5.788}
{"structure": "COCCn1ccnc1-c1cc(CN2CCCCC2)cs1", "Mtb growth Cornell": -15.54, "Mtb heat-shock": -48.48}
{"structure": "Cn1cc(-c2csc(N3CCOCC3)n2)cn1", "Mtb growth Cornell": 38.49, "Mtb heat-shock": 4.913}
{"structure": "CN(C)C(=O)NCc1nnc2n1CCN(Cc1ccsc1)C2", "Mtb growth Cornell": 5.073, "Mtb heat-shock": -22.81}
{"structure": "COc1ccc(C2CCCN2Cc2nnnn2C2CC2)cc1OC", "stereo": "stereo not shown", "Mtb growth Cornell": -11.26, "Mtb heat-shock": -13.27}
{"structure": "O=C(NC1CCCc2c1[nH]c1ccc(F)cc21)c1n[nH]c2c1CCCC2", "stereo": "stereo not shown", "Mtb growth Cornell": 11.23, "Mtb heat-shock": -13.1}
{"structure": "Cc1[nH]nc2ncc(C(=O)N3CCN(CC(O)C(C)(C)C)CC3)cc12", "stereo": "stereo not shown", "Mtb heat-shock": -4.197}
{"structure": "N#Cc1cc(F)ccc1NCC1CCS(=O)(=O)CC1", "Mtb heat-shock": -13.24}
{"structure": "COCC1CN(CC2CCOCC2)Cc2cn(CC3CCCC3)nc21", "stereo": "stereo not shown", "Mtb growth Cornell": 8.973, "Mtb heat-shock": -20.27}
{"structure": "CN(C)CCN1CCC2(CCN(C(=O)c3ccc(F)cc3)CC2)C1=O.O=C(O)C(F)(F)F", "Mtb growth Cornell": 9.525, "Mtb heat-shock": -18.01}
{"structure": "COCCSc1ccc(-n2ccnc2)nn1", "Mtb growth Cornell": -8.917, "Mtb heat-shock": -6.037}
{"structure": "Cc1cc(C(=O)NC2CCc3nc(C)cn3C2)[nH]n1", "stereo": "stereo not shown", "Mtb heat-shock": -5.735}
{"structure": "[H][C@@]12CC[C@@](O)(c3ccc(C)cn3)[C@]1([H])CN(Cc1cccnc1)C2", "Mtb growth Cornell": -22.72, "Mtb heat-shock": 4.373}
{"structure": "CCC1CN(Cc2nnc(C3CC3)o2)CCN1CCOC", "stereo": "stereo not shown", "Mtb growth Cornell": 19.79, "Mtb heat-shock": 1.023}
{"structure": "[H][C@]12CC[C@]([H])(CC(=O)N(C)C1)N2C(=O)c1cc2ccccc2[nH]c1=O", "Mtb heat-shock": 6.279}
{"structure": "CCn1cc(C(=O)Nc2cc(C)ccc2C)cn1", "Mtb growth Cornell": -8.235, "Mtb heat-shock": 26.2}
{"structure": "COc1ccnc(N2CCN(C(=O)c3csc(C)n3)CC2)n1", "Mtb heat-shock": -0.6567}
{"structure": "CCc1nc(C2CCCN(C(=O)c3ccc4c(c3)nnn4C)C2)no1", "stereo": "stereo not shown", "Mtb heat-shock": -11.91}
{"structure": "Cc1ccc(C)c(CSc2nnc(C(N)Cc3ccccc3)o2)c1.Cl", "stereo": "stereo not shown", "Mtb growth Cornell": 37.2, "Mtb heat-shock": -13.89}
{"structure": "CCN(c1ccc(C(=O)N2CCCCCC2)cc1)S(=O)(=O)CC", "Mtb growth Cornell": 32.16, "Mtb heat-shock": -3.941}
{"structure": "Nc1nccc(NCc2cc3n(n2)CCCN(C(=O)C2CCC2)C3)n1", "Mtb growth Cornell": 42.11, "Mtb heat-shock": -26.02}
{"structure": "Cc1ccc(-n2nnc(C(=O)NS(C)(=O)=O)c2C2CC2)cc1", "Mtb growth Cornell": 14.76, "Mtb heat-shock": 26.47}
{"structure": "COCCN(C(=O)c1nc(-c2ccco2)sc1C)C1CC1", "Mtb growth Cornell": -6.307, "Mtb heat-shock": 10.41}
{"structure": "Cc1ccc(C(C)(O)CNC(=O)NCCc2ccc3c(c2)CCO3)o1", "stereo": "stereo not shown", "Mtb growth Cornell": -28.76, "Mtb heat-shock": -11}
{"structure": "O=C(CCNC(=O)C1CCCC1)NCc1ccccc1Cn1ccnc1", "Mtb growth Cornell": -2.519, "Mtb heat-shock": -1.177}

Some entries from above, unchanged:

structure	Mtb growth Cornell	Mtb heat-shock
Cc1cc(C(=O)NC2CCc3nc(C)cn3C2)[nH]n1 (stereo not shown)	-	-5.735
COCCN(C(=O)c1nc(-c2ccco2)sc1C)C1CC1	-6.307	10.41

Data taken from ChEMBL document CHEMBL3988442, “University of Dundee, Small-Polar-MMV Screening Library” (2021).